In PubChem BioAssay AID1794845 (National Center for Advancing Translational Sciences (NCATS), 2023):
Hit rate of the full screen: of about 6,900 compounds, fewer than 10 were called active. Calls follow the shape of the dose curve; as a rule, active = well fitted curve in the direction sought with a large enough effect; inconclusive = small, poorly fitted or top-dose-only effect, or another doubt; inactive = no such curve, though single readings can be large or run the other way. The list shows a part of the results.

The chains behind the UniProt entries cited, without tags or fusion partners. Where a name states a change or a piece, a line headed by the entry shows the natural chain unless it says otherwise.
UniProt C7C422: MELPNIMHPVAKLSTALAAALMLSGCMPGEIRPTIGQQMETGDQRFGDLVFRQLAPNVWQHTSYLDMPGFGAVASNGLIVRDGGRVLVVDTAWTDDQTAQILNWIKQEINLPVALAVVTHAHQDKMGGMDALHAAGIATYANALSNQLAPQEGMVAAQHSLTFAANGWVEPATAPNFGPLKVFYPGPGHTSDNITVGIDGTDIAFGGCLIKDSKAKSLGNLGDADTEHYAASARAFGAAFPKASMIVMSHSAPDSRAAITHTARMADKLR

target: Metallo-beta-lactamase type 2 (Klebsiella pneumoniae) (UniProt C7C422); assay: qHTS to identify inhibitors of the New Delhi Metallo-beta-lactamase (NDM): primary screen against the NCATS Gemini Collection; settings: NDM-1 enzyme, meropenem hydrolysis, absorbance 300 nm; at 38.4 µM (top of the series) unless noted; also: % of control where 0% means no effect
Source text: Assay Submitter (PI): James Inglese Ph.D., Patricia Dranchak Ph.D., Mahesh Aitha Ph.D. Assay Development and Screening Technology Laboratory (ADST) National Center for Advancing Translational Sciences (NCATS), Rockville, MD National Institute of Health (NIH), Bethesda, Maryland The metallo-beta-lactamases (MBL) are a main antibiotic resistance mechanism evolved by bacteria. There is an urgent clinical need for MBL inhibitors to mitigate this growing threat. To support a machine-based learning study, qHTS has been used to experimentally test inhibitors identified by prediction tools.
PROTOCOL TABLE (as described by Inglese et al., 2007) SEQUENCE No. (e.g., 1, 2, 3, etc.); […] (e.g., enzyme, Incubation, Reagent, etc.); VALUE; DESCRIPTION 1; NDM-1; 4 uL of 3 nM enzyme [2 nM final] in 50 mM HEPES (pH 7.0), 1 uM […], 0.01% Tween20; Use BioRaptr to dispense into Aurora black, clear bottom low base 1536-well plates 2; Compounds; 23 nL; Use Pin Tool (Wako) to transfer DMSO control and library compounds in DMSO 3; Incubate; >30 min 4; Reagent; 2 uL of 150 uM meropenem [50 uM final] 5; Incubate; 30 min. 6; Detector; Absorbance at 300 nm (bandwidth = 5 nm, 25 flashes/well) on Tecan Infinity NOTES (numbers refer to sequence above) 1; Column 1 of each plate received assay buffer without enzyme and columns 2-48 received enzyme for a final assay concentration of 2 nM. 2; Control plate contained DMSO in columns 1, 2, 3, and 4. 3; Compound interaction with enzyme. 4; Meropenem substrate was prepared in the same assay buffer as step 1 for a final assay concentration of 50 uM and added to all wells across the assay plates. 5; Substrate interaction with enzyme, plateau phase of kinetics. 6; Default reader settings were applied for absorbance read at 300 nm, bandwidth = 5 nm, 25 flashes/well. References: Inglese J, Shamu CE, Guy RK. 2007. Reporting data from high-throughput screening of small-molecule libraries. Nat Chem Biol. doi:10.1038/nchembio0807-438 Yasgar A, Shinn P, Jadhav A, Auld D, Michael S, Zheng W, Austin CP, Inglese J, Simeonov A. 2008. Compound Management for Quantitative High-Throughput Screening. J Lab Autom 13:79 - 89. doi:10.1016/j.jala.2007.12.004

Structure (SMILES) | activity % (negative = inhibition)
O=C(Nc1ccc(F)cc1)c1ccnc2[nH]ccc12 | inactive: 21% [at 77.1 µM]
O=S(=O)(c1ccccc1)N1CCC(CCOc2ccccc2)C1 (configuration not stated) | inactive: -1.27%
O=C(C1CCCN([S+](=O)([O-])c2cccs2)C1)N1CCC(N2CCCC2=O)CC1 (configuration not stated) | inactive: 6.91%
O=C(c1ccc(OC2CCN(C(=O)C3CCCC3)CC2)nc1)N1CCOCC1 | inactive: -0.685%
CN1Cc2nc(OCc3ccc(F)cc3)ccc2OCC1=O | inactive: 2.85% [at 57.5 µM]
O=C1CO[C@H]2CCN(CCCc3ccccc3)CC[C@@H]2N1c1ccccc1 | inactive: 3% [at 57.5 µM]
CC(=O)N1CCN(c2nc3c(s2)CC(C(=O)NCc2ccc(C(C)C)cc2)CC3)CC1 (configuration not stated) | inactive: -0.544%
COc1nc2c(cc1CNC(=O)c1cccnc1C)C(=O)N(C1CCCC1)C2 | inactive: 4.73%
CC(C)CCN1C[C@@H]2C[C@H]1C(=O)N(Cc1cccnc1)c1ccccc1O2 | inactive: 5.19% [at 57.5 µM]
C[S+](=O)([O-])N1Cc2ccccc2OC2(CCN(C(=O)c3cccc4[nH]ccc34)CC2)C1 | inactive: 10.3%
COCCN1C(=O)c2ccccc2C(C(=O)Nc2nnc(C)s2)C12CCCCC2 (configuration not stated) | inactive: -0.924%
COc1cccc(Nc2ncc3c(n2)C(C)(C(=O)N2CCN(c4ccccn4)CC2)CC3)c1 (configuration not stated) | inactive: 4.25%
Cc1ccc(C(=O)N2CCC3(CC2)CC(N2CCN(CC(C)C)CC2)CCO3)cn1 (configuration not stated) | inactive: 0.181%
Cn1ncc(N2CCCC(C(=O)NCCCc3ccccc3)C2)cc1=O (configuration not stated) | inactive: 2.42%
O=C(C[C@@H]1O[C@H](CNC(=O)C2CC2)[C@@H](O)[C@H]1O)Nc1ccccc1 | inactive: -0.242% [at 57.5 µM]
CCn1cc(S(=O)(=O)N2CC(N(C3CCOCC3)S(C)(=O)=O)C2)cn1 | inactive: -0.782%
Fc1ccc(C2Cn3cnc(-c4nc(-c5ccsc5)no4)c3CO2)cc1 (configuration not stated) | inactive: -1.04%
c1ccc(C(c2ccccc2)N2CCN(Cc3nc(-c4ccccn4)no3)CC2)cc1 | inactive: -8.95%
COc1ccc(NC(=O)N[C@H]2C[C@@H](C(=O)N[C@@H](Cc3cccs3)C(N)=O)N(C(=O)CSC)C2)cc1 | inactive: 2.07%
O=C(O)c1cc(-c2cccc(CO)c2)cc(S(=O)(=O)NC2CCCC2)c1 | inactive: 10.6%
COCC1(CNC(=O)c2cnccn2)C[C@@H](O)[C@@H](O)C1 (some centres not stated) | inactive: 20.1% [at 77.1 µM]

Structure (SMILES) | activity % (negative = inhibition)
Cc1noc2c(NCCN3CCOCC3)cc(-c3ccsc3)nc12 | inactive: 84% [at 57.5 µM]
Cc1cccc(C2CCCN(C(=O)c3cn(CCc4ccccc4)nn3)C2)c1 (configuration not stated) | inactive: -1.32%
CCc1nncn1C1CCN(C(=O)c2cc(-c3cccs3)[nH]n2)C1 (configuration not stated) | inactive: 4.15%
COc1ccc(C(=O)NC[C@H]2O[C@@H](CC(=O)N3CCN(c4ccccc4)CC3)[C@H](O)[C@@H]2O)cc1 | inactive: 13.5%
COc1cccc(CN2CCOC3CCN(Cc4ccccc4Cl)CC3C2=O)c1 (configuration not stated) | inactive: 7.56% [at 57.5 µM]
Cn1nc(C(=O)N2CCCC(CN3CCOCC3)CC2)c2ccccc21 (configuration not stated) | inactive: 2.41%
COc1nc(C)c(C(=O)NC2CC(c3cc(=O)[nH]c(C)n3)C2)s1 (configuration not stated) | inactive: -0.677%
Cc1cn2nc(C(=O)NC3CCCC3)cc2c(N2CCSCC2)n1 | inactive: 48.6%
CC(c1cccs1)N(C)C(=O)c1ccccc1Cl (configuration not stated) | inactive: 11.2% [at 57.5 µM]
COCCc1noc(CNC(=O)C2COc3ccccc3C2)n1 (configuration not stated) | inactive: 6.51%
COCCN1CCCC2(CCN(C(=O)CN3C(=O)CNC3=O)C2)C1=O (configuration not stated) | inactive: 23.7%
OC1(CN2CCC(c3nc(-c4ccccc4)no3)CC2)CNCCOC1 (configuration not stated) | inactive: 1.84%
COCCC1(CO)CCCN(C(=O)CCc2c(C)noc2C)C1 (configuration not stated) | inactive: 1.33%
CCc1nccc(-c2c(-c3ccccc3)ncn2CC(O)c2ccccc2)n1 (configuration not stated) | inactive: 0.0694%
COC(=O)[C@H](NC(=O)[C@@H]1C[C@H](NC(=O)Nc2ccc(OC)cc2)CN1C(=O)C=C(C)C)C(C)C | inactive: 1.06%
O=C(c1ccccc1F)N1CCC(N2Cc3ccccc3C2=O)CC1 | inactive: 6.11%
O=C1CCCCC(Cc2ccccc2)(C(=O)NCc2ccc(F)cc2)N1 (configuration not stated) | inactive: -11.7%
O=C(c1cc(-c2ccc(F)cc2)n[nH]1)N1CC2CC(C1)[C@H]1CCCC(=O)N1C2 (some centres not stated) | inactive: -2.41%
O=C1N(CC2CC2)CCCC12CCN(S(=O)(=O)N1CCOCC1)C2 (configuration not stated) | inactive: 64.4%
CCCNC(=O)N1CCCC2(CCC(=O)N(Cc3cnc(C)cn3)C2)C1 (configuration not stated) | inactive: 2.67%
Cc1ccc(CN2CCn3c(nnc3[C@@H]3C[C@@H](O)CN3Cc3cccnc3)C2)s1 | inactive: 0.15%

Some of the entries so far, with each value named:
Cc1noc2c(NCCN3CCOCC3)cc(-c3ccsc3)nc12
  activity % (negative = inhibition): inactive: 84% [at 57.5 µM]
Cc1cccc(C2CCCN(C(=O)c3cn(CCc4ccccc4)nn3)C2)c1 (configuration not stated)
  activity % (negative = inhibition): inactive: -1.32%
CCc1nncn1C1CCN(C(=O)c2cc(-c3cccs3)[nH]n2)C1 (configuration not stated)
  activity % (negative = inhibition): inactive: 4.15%

Next part:

Structure (SMILES) | activity % (negative = inhibition)
O=C([C@@H]1Cc2nc[nH]c2CN1Cc1ccc(C(F)(F)F)cc1)N1CCOCC1 | inactive: 1.7% [at 57.5 µM]
Cc1cnc(CCNC(=O)Nc2ccc3c(c2)OCCO3)n1C1CCC1 | inactive: 43.7%
CNC(=O)[C@@H]1CN(C(=O)Cc2cc(C)no2)C[C@H]1COC | inactive: 5.89%
COc1ccc2[nH]c(C[C@@H]3C[C@@H](C(C)C)[C@H](CNC(=O)c4cccnc4)C=C3C)nc2n1 | inactive: 51.4% [at 57.5 µM]
CCCS(=O)(=O)Nc1ccc([C@H]2OCC(=O)N(CC(=O)N(C)C)[C@@H]2CO)cc1 | inactive: 17.5% [at 57.5 µM]
Cc1nc(CN2CCOc3cc([S+](=O)([O-])Nc4ccccc4)ccc3C2)cs1 | inactive: 1.72% [at 57.5 µM]
CCn1cc(CN(C)Cc2ccccc2)ccc1=O | inactive: 8.06%
Cc1noc(C)c1CN[C@@H]1CCC[C@@H](C(=O)N2CCN(C)CC2)CC(=O)N(C)C1 | inactive: -2.64% [at 57.5 µM]
O=C(Cc1cccnc1)N1CCC2(CC1)CC(CCOc1ccc(F)cc1)CCO2 (configuration not stated) | inactive: 0.0542%
CC(C)N1C(=O)C2(CCCC2)C1C(=O)NCCCN1CCc2ccccc2C1 (configuration not stated) | inactive: -4.17%
O=C(c1nc2ccccc2n(C2CCCC2)c1=O)N1CCCC1 | inactive: -0.57% [at 57.5 µM]
CCN1CCN(C(=O)C2CCc3nnc(-c4cccc(C(F)(F)F)c4)n32)CC1 (configuration not stated) | inactive: -2.08%
CS(=O)(=O)N(Cc1cccnc1)C1CN(C(=O)CCc2c[nH]c3ccccc23)C1 | inactive: 44.6%
COCCNc1cc(-c2ccc3ccccc3n2)c2cc[nH]c2n1 | inactive: 3.93%
CCCN1CCC(N2CCCC(Cc3ccccc3)(C(=O)OCC)C2)CC1 (configuration not stated) | inactive: -3.78%
COc1ccccc1CNC(=O)C[C@@H]1c2nc(-c3cccnc3)sc2C[C@@H]2[C@](C)(CO)[C@H](O)CC[C@]21C | inactive: 0.0251%
COc1cccc(CN2CCCCC2c2nc(CCOCC3CCOCC3)no2)c1 (configuration not stated) | inactive: -0.867%
Cc1ccc2nc(CO[C@H]3CN(C4CCN(C)CC4)C[C@H]3F)[nH]c2c1 | inactive: 6.47% [at 57.5 µM]
COc1ccc(NC(=O)C2CCN(C(=O)c3ncn4c3COC(c3ccccc3)C4)CC2)cc1Cl (configuration not stated) | inactive: 24.2%
NS(=O)(=O)c1ccc(F)c(C(=O)NCCSc2ccccn2)c1 | inactive: 2.3%
COc1ccc(-c2cc3nc4c(c(=O)n3[nH]2)CN(C(=O)CN(C)S(=O)(=O)c2cnc[nH]2)CC4)cc1 | inactive: 9.73%

A draw from above in order of number of heavy atoms, largest number first:
Structure (SMILES) | activity % (negative = inhibition)
O=C([C@@H]1Cc2nc[nH]c2CN1Cc1ccc(C(F)(F)F)cc1)N1CCOCC1 | inactive: 1.7% [at 57.5 µM]
COCCNc1cc(-c2ccc3ccccc3n2)c2cc[nH]c2n1 | inactive: 3.93%
O=C(c1nc2ccccc2n(C2CCCC2)c1=O)N1CCCC1 | inactive: -0.57% [at 57.5 µM]
CCn1cc(CN(C)Cc2ccccc2)ccc1=O | inactive: 8.06%

More compounds.

Structure (SMILES) | activity % (negative = inhibition)
Cc1ccc([S+](=O)([O-])N2CCCC2C(=O)N2CCC3(CC2)CC(=O)Nc2ccccc2O3)cc1 (configuration not stated) | inactive: 20.3%
Cc1cc(F)ccc1NC(=O)CCC1CCCN(C(=O)CC2=CCCCC2)C1 (configuration not stated) | inactive: 1.37%
CCCC1=Nc2cc(C(=O)NCCCN3CCCCC3CC)ccc2Sc2ccc(C)cc21 (configuration not stated) | inactive: -0.812%
Cc1cccc(C(C(=O)N2CCN(Cc3noc(C)n3)CC2)N(C)C)c1 (configuration not stated) | inactive: -7.52%
O=C(Cc1ccccc1)NCc1ccnc2[nH]ccc12 | inactive: 4.52% [at 57.5 µM]
COc1ccc(-c2noc(-c3nc(-c4ccc(N(C)C)cc4)no3)n2)cc1OC | inactive: 8.38%
O=C(CN1CCCc2nc(-c3ccncc3)ncc2C1=O)NCc1cc(F)ccc1F | inactive: 0.922%
CC(C)CCN1CC2(CCCN(C(=O)c3ccn(C)c(=O)c3)C2)CCC1=O (configuration not stated) | inactive: 9.09%
OCC(O)c1cc2n(n1)CCN(Cc1ccccc1Cn1cccn1)C2 (configuration not stated) | inactive: -1.97%
CN(C)CC1(O)CCN(C(=O)Cn2cc(C(=O)C3CC3)c3ccccc32)C1 (configuration not stated) | inactive: 69.4%
O=C(CCn1cncn1)N1CCC(c2nccn2Cc2cccnc2)CC1 | inactive: -1.12%
Cc1ccccc1CCN1CCC(CN(C(=O)c2ccoc2C)C2CCCC2)CC1 | inactive: -3.03%
CNC(=O)[C@@H]1CN(C(=O)c2conc2C)C[C@H]1COC | inactive: 5.97%
NC(=O)c1cccc(CN2CCCC3(Cc4ccccc4N(C(=O)c4ccc(Cl)cc4)C3)C2)c1 (configuration not stated) | inactive: 4.26%
CNC(=O)[C@@H](C1CC1)N1CCC[C@H]1C(=O)NCc1cccnc1 | inactive: 24.8% [at 57.5 µM]
CCOC(=O)c1cn(C2CN(S(=O)(=O)c3ccc(C)c(C)c3)C2)nn1 | inactive: -0.484%
Cn1ncc2c(C(=O)NC3CCCCCC3)cc(C(C)(C)C)nc21 | inactive: 16.2% [at 57.5 µM]
Cc1ncoc1C(=O)N1C[C@@H](COCC2CC2)[C@H](c2ccccn2)C1 | inactive: -0.784%
Cc1cccc(CN2CCc3nnc([C@@H]4C[C@@H](O)CN4C)n3CC2)c1 | inactive: 3.58%
